This data set has as its system 16S ribosomal RNA fragment. Description: Relative gas-phase activation energies (EA) for dissociation of ligand-16S complexes, FTICR. In kind it is binding, bacterial. The following applies: normalized to the activation energy for loss of ammonia.

Molecules are shown by their SMILES.

Data on five compounds can be found in patent US8188011B1, “Optimization of ligand affinity for RNA targets using mass spectrometry” (Isis Pharmaceuticals, Inc., priority 2000, dated 2012).

With `N=C(N)c1ccc(N)cc1` [ABA, 4-aminobenzamidine], the “Relative EA” value was 4.00. For the same compound, the “Relative EA” value (listed as 4-aminobenzamidine) was determined as 4.00 ± 0.28.
`N=C(N)Nc1nc2ccccc2[nH]1` [GBI, 2-guanidylbenzimidazole]: the “Relative EA” value worked out at 2.12. For the same compound, under “listed as 2-Guanylbenzimidazole”, the “Relative EA” value was 2.12 ± 0.09.
For the compound `NC(=O)c1[nH]cnc1N` [AICA, 4-aminoimidazole-5-carboxamide], the “Relative EA” value was 2.04. For the same compound, where the note is “listed as 4-Aminoimidazolecarboxamide”, the “Relative EA” value was determined as 2.04 ± 0.16.
Turning to `Nc1ccnc(N)n1` [DAP, 2,4-diaminopyrimidine], the “Relative EA” value is reported as 2.16. For the same compound, the “Relative EA” value (listed as 2,4-Diaminopyrimdine) is reported as 2.16 ± 0.11.
Regarding `N[C@H]1C(O)O[C@H](CO)[C@@H](O)[C@@H]1O` (stereo partly shown) [GA, glucosamine], the “Relative EA” value was 2.86. Moreover, where the note is “listed as Glucosamine”, the “Relative EA” value is on record as 2.86 ± 0.21.
